# Source: the supplement of paper PMC4749390
# Where a name gives a salt, the structure may show the parent alone. The list shows a part of the results. Single values are uncertain here, since repeats match poorly.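 Wild-type human LRH-1, a heavily sumoylated nuclear receptor, is tetracycline-inducible in stable JEG3 cells. RT-qPCR measured SUMO-sensitive APOC3 and MUC1 transcripts, which rise with SUMO-less LRH-1 or UBC9 knockdown, versus TBP and DMSO controls. Robust Z-scores beyond ±2 flagged primary hits, followed by toxicity and TBP filtering.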
# Tested on: JEG3 expressing hLRH-1
# Assay: MUC1 transcript change (ddCt vs TBP and DMSO), Z-score over library; higher = higher MUC1 expression
# Details: 10 µM; time (hr): 24
row,Structure (SMILES),MUC1 transcript change (Z-score)
1,C/C(=C\C(=O)OCCCCCCCCC(=O)O)C[C@@H]1OC[C@H](C[C@@H]2O[C@H]2[C@@H](C)[C@H](C)O)[C@@H](O)[C@H]1O [mupirocin],0.708
2,Cc1ccc(O)cc1 [cresol],0.176
3,CCOC(=O)C1=C[C@]2(CC)CCCN3CCc4c(n1c1ccccc41)[C@@H]32 [vinpocetine],0.641
4,CCCN(CCC)S(=O)(=O)c1ccc(C(=O)O)cc1 [probenecid],0.274
5,NS(=O)(=O)c1ccc(C(=O)O)cc1 [carzenide],-0.297
6,C[C@H]1C[C@@H]2[C@H]([C@@H](O)C[C@@]3(C)[C@H]2CC[C@]3(O)C(=O)CO)[C@@]2(C)C=CC(=O)C=C12 [methylprednisolone],-0.93
7,CN(C(=O)C(Cl)Cl)c1ccc(OC(=O)c2ccco2)cc1 [diloxanide furoate],-0.422
8,CC(=O)OCC(=O)[C@@]1(O)[C@H](C)CC2C3CCC4=CC(=O)C=C[C@]4(C)[C@@]3(F)[C@@H](O)C[C@@]21C (stereo partly specified) [dexamethasone acetate],-0.938
9,O=C1CN(/N=C/c2ccc([N+](=O)[O-])o2)C(=O)N1 [nitrofurantoin],-0.165
10,O=C(O)COCCN1CCN(C(c2ccccc2)c2ccc(Cl)cc2)CC1 (stereo unspecified) [cetirizine hydrochloride],0.744
11,Cc1c(-c2cnccn2)ssc1=S [oltipraz],0.254
12,CCC(=O)O[C@]1(C(=O)CCl)[C@@H](C)C[C@H]2[C@@H]3CCC4=CC(=O)C=C[C@]4(C)[C@@]3(F)[C@@H](O)C[C@@]21C [clobetasol propionate],-0.127
13,NNc1nncc2ccccc12 [hydralazine hydrochloride],-0.356
14,NCC(O)CC(=O)O (stereo unspecified) [aminohydroxybutyric acid],0.144
15,O=C(O)CSCC(=O)NC1CCSC1=O (stereo unspecified) [erdosteine],0.828
16,C1CNCCN1 [piperazine],-0.318
17,CCN(CC)CC#CCOC(=O)C(O)(c1ccccc1)C1CCCCC1 (stereo unspecified) [oxybutynin chloride],-0.297
18,C[C@@H]1O[C@@H](OC[C@H]2OC(Oc3c(-c4ccc(O)c(O)c4)oc4cc(O)cc(O)c4c3=O)[C@H](O)[C@@H](O)[C@@H]2O)[C@H](O)[C@H](O)[C@H]1O (stereo partly specified) [rutin],0.016
19,Cc1cc(=O)n(-c2ccccc2)n1C [antipyrine],0.386
20,CC(C)c1ccc2oc3nc(N)c(C(=O)O)cc3c(=O)c2c1 [amlexanox],0.375
21,CCc1oc2ccccc2c1C(=O)c1cc(Br)c(O)c(Br)c1 [benzbromarone],0.861

row,Structure (SMILES),MUC1 transcript change (Z-score)
1,Cc1nc2n(c(=O)c1CCN1CCC(c3noc4cc(F)ccc34)CC1)CCCC2 [Risperidone],-4.72
2,CCC(=O)NCC[C@@H]1CCc2ccc3c(c21)CCO3 [ramelteon],0.132
3,CC(=O)Oc1cccc2c1C(=O)c1c(OC(C)=O)cc(C(=O)O)cc1C2=O [diacerin],-0.551
4,Clc1cccc(Cl)c1NC1=NCCN1 [Clonidine hydrochloride],0.153
5,CC1=C(C)C(=O)C(C(CCCCCC(=O)O)c2ccccc2)=C(C)C1=O (stereo unspecified) [seratrodast],0.463
6,CN(C)CCOC(C)(c1ccccc1)c1ccccn1 (stereo unspecified) [doxylamine succinate],0.0536
7,CC(C)COCC(CN(Cc1ccccc1)c1ccccc1)N1CCCC1 (stereo unspecified) [Bepridil hydrochloride],0.0567
8,CC(=O)Nc1ncc([N+](=O)[O-])s1 [nithiamide],0.94
9,CN(C)CCCOc1nn(Cc2ccccc2)c2ccccc12 [benzydamine hydrochloride],-1.38
10,C[n+]1cc2c3c(ccc2c2ccc4cc5c(cc4c21)OCO5)OCO3 [Sanguinarine chloride],0.47
11,CN(C)CCc1c[nH]c2ccc(Cn3cncn3)cc12 [rizatriptan benzoate],0.311
12,CO[C@@]1(NC(=O)Cc2cccs2)C(=O)N2C(C(=O)O)=C(COC(N)=O)CS[C@@H]21 [cefoxitin sodium],-0.288
13,CC1(C)OC(=O)NC1=O [dimethadione],-0.289
14,C=C[C@H]1CN2CC[C@H]1C[C@@H]2[C@H](O)c1ccnc2ccc(OC)cc12 [quinine sulfate],0.173
15,COc1ccc(NS(=O)(=O)c2ccc(N)cc2)nn1 [sulfamethoxypyridazine],0.263
16,O=C(CCBr)N1CCN(C(=O)CCBr)CC1 [pipobroman],0.428
17,Cc1ccc(S(=O)(=O)NC(=O)NN2CC3CCCC3C2)cc1 (stereo unspecified) [gliclazide],-0.0549
18,Cc1ncc(CSSCc2cnc(C)c(O)c2CO)c(CO)c1O [pyritinol],-0.471
19,CC(C(=O)O)c1ccc(N2Cc3ccccc3C2=O)cc1 (stereo unspecified) [indoprofen],0.243
20,C=C1C[C@H]2[C@@H]3C=C(C)C4=CC(=O)CC[C@]4(C)[C@H]3CC[C@]2(C)[C@@]1(OC(C)=O)C(C)=O [melengestrol acetate],0.0525
21,O=C(O)CCCc1ccccc1 [phenylbutyric acid],1.17

row,Structure (SMILES),MUC1 transcript change (Z-score)
1,CC1=CC(=O)NS(=O)(=O)O1 [acesulfame potassium],0.701
2,CCCC(=O)Nc1ncnc2c1ncn2[C@@H]1O[C@@H]2COP(=O)(O)O[C@H]2[C@H]1OC(=O)CCC [bucladesine],0.319
3,CCOc1cc(CC(=O)N[C@@H](CC(C)C)c2ccccc2N2CCCCC2)ccc1C(=O)O [repaglinide],-0.173
4,CN(C)C(=N)N=C(N)N [metformin hydrochloride],0.409
5,CN[C@@H]1C(OC2[C@H](O[C@H]3[C@H](O)[C@@H](O)[C@H](N=C(N)N)[C@@H](O)[C@@H]3N=C(N)N)OC(C)[C@]2(O)CO)OC(CO)C(O)C1O (stereo partly specified) [dihydrostreptomycin sulfate],0.366
6,O=C1C(O)=C(O)O[C@@H]1C(O)CO (stereo partly specified) [ascorbic acid],0.467
7,CC(=O)Oc1cccc(O)c1 [resorcinol monoacetate],-0.58
8,CCN1CCN(C(=O)N[C@@H](C(=O)N[C@@H]2C(=O)N3[C@@H]2SC(C)(C)[C@@H]3C(=O)O)c2ccccc2)C(=O)C1=O [piperacillin sodium],0.511
9,Cc1ncc([N+](=O)[O-])n1CCO [metronidazole],-0.236
10,Nc1ccc(S(=O)(=O)O)cc1 [sulfanilate zinc],1.1
11,O=C(Oc1ccccc1C(=O)O)c1ccccc1O [salsalate],0.0339
12,CC(=O)OC/C=C(C)/C=C/C=C(C)/C=C/C1=C(C)CCCC1(C)C [retinyl acetate],0.273
13,C[N+](C)(C)CCOC(N)=O [Carbachol],0.897
14,O=c1[nH]c(=O)n([C@H]2C[C@H](O)C(CO)O2)cc1I (stereo partly specified) [idoxuridine],3.85
15,CCOC(=O)[C@H](CCc1ccccc1)N[C@@H](C)C(=O)N1CCC[C@H]1C(=O)O [enalapril maleate],0.305
16,C=CC[C@@H]1/C=C(\C)C[C@H](C)C[C@H](OC)[C@H]2O[C@@](O)(C(=O)C(=O)N3CCCC[C@H]3C(=O)O[C@H](/C(C)=C/[C@@H]3CC[C@@H](O)[C@H](OC)C3)[C@H](C)[C@@H](O)CC1=O)[C@H](C)C[C@@H]2OC [tacrolimus],0.759
17,NC[C@H]1O[C@H](O[C@H]2[C@H](O[C@@H]3O[C@H](CO)[C@@H](O)[C@H]3O)[C@@H](O)[C@H](N)C[C@@H]2N)[C@H](N)[C@@H](O)[C@@H]1O [ribostamycin sulfate],0.103
18,O=C(O)c1cc(=O)c2ccccc2o1 [chromocarb],0.0625
19,COc1cc(/C=C/C(N)=O)cc(OC)c1OC [cintriamide],0.184
20,NCCS(=O)(=O)O [taurine],1.19
21,CC(=O)c1ccc2c(c1)N(CCCN1CCC(CCO)CC1)c1ccccc1S2 [piperacetazine],-0.178

row,Structure (SMILES),MUC1 transcript change (Z-score)
1,Cc1cccc(C)c1NC(=O)C1CCCCN1C (stereo unspecified) [mepivacaine hydrochloride],0.5
2,COc1cc(C(=O)NCCCCCC(=O)O)cc(OC)c1OC [capobenic acid],0.309
3,Oc1c(I)cc(I)c2cccnc12 [iodoquinol],0.722
4,CCCc1nn(C)c2c(O)nc(-c3cc(S(=O)(=O)N4CCN(C)CC4)ccc3OCC)nc12 [sildenafil],0.459
5,CCCCCC(C)N (stereo unspecified) [tuaminoheptane sulfate],0.944
6,O=C(NCCCN1CCOCC1)c1ccc(Cl)cc1 [eprobemide],0.263
7,OC[C@H]1O[C@@H](n2cnc3c(O)ncnc32)[C@H](O)[C@@H]1O [inosine],-1.45
8,Cn1cnc2c1c(=O)[nH]c(=O)n2C [Theobromine],0.706
9,CS(=O)(=O)c1ccc([C@@H](O)[C@@H](CO)NC(=O)C(Cl)Cl)cc1 [thiamphenicol],0.142
10,NC[C@@H]1CC[C@@H](N)[C@@H](O[C@H]2[C@H](O)[C@@H](O[C@H]3O[C@H](CO)[C@@H](O)[C@H](N)[C@H]3O)[C@H](N)C[C@@H]2N)O1 [dibekacin],0.222
11,O=S(=O)(O)CCS [mesna],0.0903
12,CC(C)NCC(O)COc1ccc(COCCOC(C)C)cc1 (stereo unspecified) [bisoprolol fumarate],0.999
13,CCOc1cc(NC(C)=O)ccc1C(=O)OC [ethopabate],1.09
14,Nc1nc(N)nc(-c2cc(Cl)ccc2Cl)n1 [irsogladine maleate],0.0142
15,Nc1nc(Cl)nc2c1ncn2[C@@H]1O[C@H](CO)[C@@H](O)[C@@H]1F [clofarabine],-3.06
16,CC(C)(Oc1ccc(C(=O)c2ccc(Cl)cc2)cc1)C(=O)O [fenofibric acid],1.18
17,Cc1c(OCC(F)(F)F)ccnc1C[S@@](=O)c1nc2ccccc2[nH]1 [dexlansoprazole],-0.0323
18,C=CCOC(Cn1ccnc1)c1ccc(Cl)cc1Cl (stereo unspecified) [enilconazole],0.517

# Four compounds out of the list, arranged by number of heavy atoms, largest number first.
row,Structure (SMILES),MUC1 transcript change (Z-score)
10,NC[C@@H]1CC[C@@H](N)[C@@H](O[C@H]2[C@H](O)[C@@H](O[C@H]3O[C@H](CO)[C@@H](O)[C@H](N)[C@H]3O)[C@H](N)C[C@@H]2N)O1 [dibekacin],0.222
6,O=C(NCCCN1CCOCC1)c1ccc(Cl)cc1 [eprobemide],0.263
3,Oc1c(I)cc(I)c2cccnc12 [iodoquinol],0.722
11,O=S(=O)(O)CCS [mesna],0.0903
